These are yes or no findings as the source states them, for the method shown. Some entries that bind do so weakly or less than the wild type. Values belong to the binder of their own block, whether it stands above or below them.
What was measured:
mouse DDR1 ECD = biological target: T1, mouse DDR1 ECD (mouse, UniProt Q03146 22-415); experiment: titration ELISA on mouse DDR1
T1 construct: extracellular domain; construct not described; also called mouse ECD
T1 sequence (looked up): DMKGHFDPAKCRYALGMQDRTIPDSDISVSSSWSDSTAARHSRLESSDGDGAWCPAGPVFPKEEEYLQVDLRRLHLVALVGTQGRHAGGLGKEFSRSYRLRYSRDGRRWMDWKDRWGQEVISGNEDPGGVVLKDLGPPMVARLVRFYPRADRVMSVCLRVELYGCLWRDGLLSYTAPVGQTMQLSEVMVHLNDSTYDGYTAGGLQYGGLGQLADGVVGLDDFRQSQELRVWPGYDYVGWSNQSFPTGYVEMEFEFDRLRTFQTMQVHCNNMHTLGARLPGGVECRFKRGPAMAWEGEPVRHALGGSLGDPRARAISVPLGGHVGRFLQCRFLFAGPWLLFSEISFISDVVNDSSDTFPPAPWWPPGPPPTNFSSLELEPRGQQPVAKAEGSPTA

[1] = biological target: Human DDR1 extracellular domain (ECD) protein (human) (UniProt Q08345); experiment: ELISA on DDR1, antibody at 10 and 1 µg/ml

binding (mouse DDR1 ECD): binds
B1: DDR1-33 (antibody, V domains shown)
VH: QSVEESGGRLVTPGGSLTLTCTVSGFSLSSYDMSWVRQAPGKGLEWIGISWNSGFVDYASWAKGRFSISKTSTTVDLKITSPTTEDTATYFCARLGADDIYYFNLWGPGTLVTISS
VL: ELVMTQTPASVEAAVGGTVTIKCQASETISSRLAWYQQKPGQPPKLLIYQASKLPSGVPSRFKGTGSGTEYTLTISDLECADAATYYCQGCYYGGGSFYDSAFGGGTEVVVK
notes: Rabbit variable domains; also called anti-huDDR1 #33 antibody; DDR1-33K/DDR1-33H

binding [1]: no binding (tested: 10 µg/ml)
B2: DDR1-32 (antibody, V domains shown)
VH: QSLEESGGRLVTPGTPLTLTCTASGFSLSSYYMSWVRQAPGEGLEWIGTITTAGPLYYATWAKGRFTISKTSTTVDLKMTGPTTEDTATYFCARGHAGSIYYSYFDLWGPGTLVTVSS
VL: ELVMTQTPASVEAAVGGTVTIKCQASESINSWLAWYQQKPGQRPKLLIYDASKLASGVPSRFKGSGSGTQFTLTISDLECADAATYYCQSYYIINRSNYGNSFGGGTEVEIK

binding (mouse DDR1 ECD): binds
B3: DDR1-9 (antibody, V domains shown)
VH: QSLEESGGRLVTPGTPLTLTCTASGFSLNRYYMLWVRQAPGEGLEWIGTISYGDTTYYASWAKGRFTISKTSTTVDLKMTSPTTEDTATYFCARADTGDNGYLGLQLWGPGTLVTVSS
VL: ELVMTQTPASVEAAVGGTVTIKCQASQSIGSVLAWYQQKPGQRPKLLISGVFDLASGVPSRFKGSGSGTEFTLTISDLECADAATYYCQYIPYGSSPFGGGTEVVVK
notes: Rabbit variable domains; also called anti-huDDR1 antibody #9; DDR1-9K/DDR1-9H

Reference: US20230235078A1 (University of Texas, published 2023)
